# Measured values: patent US20120322824A1, “Cocaine Antagonist/Antidepressant Pharmaceutical Preparations” (priority 2011, published 2012)
# At least one structure is not confirmed: it was looked up by name or label, or the drawing left a doubt.
# System: mice
# Assay: conditioned place preference assay (CPP)
# Format: in vivo
# Conditions: cocaine 10 mg/kg i.p. alone, compared to sterile water
# Experimental: The conditioned place preference assay (CPP) is one test commonly used to show the ability of an antagonist to block rewarding effects in mice. Referring now to FIGS. 1a-b, according to the CPP test mice are placed in an apparatus with two chambers that differ in both visual and tactile cues. Over the course of a one-week training period, a rewarding drug (e.g.—cocaine) is administered once daily exclusively in one chamber so as to allow animals to associate the cues of that chamber with the drug. Sterile water is administered once daily while the animals occupy the opposite chamber to control for non-drug effects. At the conclusion of the training period, animals are allowed free access to both chambers and the time spent in each chamber is measured electronically. It is well known that addictive substances increase the amount of time animals spend in the drug-paired chamber, in the absence of any intervention.
# Moreover, additional testing was performed to control for effects of MI-4 on general behavioral activity, an essential consideration when interpreting results from locomotor-based behavioral paradigms such as the CPP test.
smiles,measurement,value
COC(=O)[C@H]1[C@@H](OC(=O)c2ccccc2)C[C@@H]2CC[C@H]1N2C [cocaine],time spent in the drug-paired chamber,significantly more time in the drug-paired chamber
